Results published in article PMC11533276.
Results are given in words; binding and its absence hold for the method and conditions named. Binding seen in cells or lysates may run through a third protein. Some results given as binding are weak or reduced against the parent protein; the word gives no strength.

By UniProt entry, the sequences of proteins in these tests, tags left out.
UniProt Q13464: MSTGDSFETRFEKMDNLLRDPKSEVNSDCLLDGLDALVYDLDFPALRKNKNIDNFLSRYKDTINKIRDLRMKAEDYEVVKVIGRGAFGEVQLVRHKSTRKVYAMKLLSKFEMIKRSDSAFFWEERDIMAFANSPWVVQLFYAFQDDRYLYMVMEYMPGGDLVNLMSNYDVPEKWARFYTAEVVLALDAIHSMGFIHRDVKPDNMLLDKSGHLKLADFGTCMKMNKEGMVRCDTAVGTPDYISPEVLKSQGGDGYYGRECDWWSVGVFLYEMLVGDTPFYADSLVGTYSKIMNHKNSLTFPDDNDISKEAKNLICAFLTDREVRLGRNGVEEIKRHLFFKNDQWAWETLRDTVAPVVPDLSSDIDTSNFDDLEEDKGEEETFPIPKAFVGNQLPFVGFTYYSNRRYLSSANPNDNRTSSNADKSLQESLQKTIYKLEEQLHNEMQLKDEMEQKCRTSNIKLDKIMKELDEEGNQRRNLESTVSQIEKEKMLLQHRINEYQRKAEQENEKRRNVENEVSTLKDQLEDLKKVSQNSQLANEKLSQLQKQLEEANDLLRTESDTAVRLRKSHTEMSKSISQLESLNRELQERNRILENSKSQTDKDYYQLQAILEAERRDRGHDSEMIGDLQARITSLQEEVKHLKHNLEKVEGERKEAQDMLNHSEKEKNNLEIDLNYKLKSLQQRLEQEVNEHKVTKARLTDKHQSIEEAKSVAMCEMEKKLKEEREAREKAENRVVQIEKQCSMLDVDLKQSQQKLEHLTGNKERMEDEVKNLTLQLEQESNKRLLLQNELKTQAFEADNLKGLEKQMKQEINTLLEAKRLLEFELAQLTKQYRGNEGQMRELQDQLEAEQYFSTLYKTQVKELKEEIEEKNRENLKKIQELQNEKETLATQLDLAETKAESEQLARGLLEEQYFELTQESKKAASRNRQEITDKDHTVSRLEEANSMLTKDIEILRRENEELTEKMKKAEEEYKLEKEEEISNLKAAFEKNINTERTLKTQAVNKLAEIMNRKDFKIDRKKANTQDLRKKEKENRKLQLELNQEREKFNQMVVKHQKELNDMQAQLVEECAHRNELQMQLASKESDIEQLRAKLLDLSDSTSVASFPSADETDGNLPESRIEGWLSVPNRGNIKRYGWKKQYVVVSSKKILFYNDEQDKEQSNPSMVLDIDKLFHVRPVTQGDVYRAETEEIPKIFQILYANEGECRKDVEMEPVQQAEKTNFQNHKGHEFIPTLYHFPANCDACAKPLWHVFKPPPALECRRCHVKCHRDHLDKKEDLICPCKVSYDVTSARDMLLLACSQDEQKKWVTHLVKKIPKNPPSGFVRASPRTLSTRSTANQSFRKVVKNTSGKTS
UniProt Q9R210: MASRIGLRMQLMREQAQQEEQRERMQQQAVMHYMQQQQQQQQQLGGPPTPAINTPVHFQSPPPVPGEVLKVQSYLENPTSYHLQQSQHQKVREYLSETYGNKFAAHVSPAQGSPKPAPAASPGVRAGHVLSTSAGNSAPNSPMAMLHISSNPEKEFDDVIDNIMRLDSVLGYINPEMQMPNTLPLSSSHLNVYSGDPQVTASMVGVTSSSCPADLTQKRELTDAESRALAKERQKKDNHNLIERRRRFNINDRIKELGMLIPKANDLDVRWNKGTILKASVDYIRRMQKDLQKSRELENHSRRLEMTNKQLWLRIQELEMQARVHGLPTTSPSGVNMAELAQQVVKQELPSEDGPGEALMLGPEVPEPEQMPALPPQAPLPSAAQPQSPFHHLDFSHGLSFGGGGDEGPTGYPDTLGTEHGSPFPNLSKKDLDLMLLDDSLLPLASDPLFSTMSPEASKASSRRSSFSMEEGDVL
UniProt P19484: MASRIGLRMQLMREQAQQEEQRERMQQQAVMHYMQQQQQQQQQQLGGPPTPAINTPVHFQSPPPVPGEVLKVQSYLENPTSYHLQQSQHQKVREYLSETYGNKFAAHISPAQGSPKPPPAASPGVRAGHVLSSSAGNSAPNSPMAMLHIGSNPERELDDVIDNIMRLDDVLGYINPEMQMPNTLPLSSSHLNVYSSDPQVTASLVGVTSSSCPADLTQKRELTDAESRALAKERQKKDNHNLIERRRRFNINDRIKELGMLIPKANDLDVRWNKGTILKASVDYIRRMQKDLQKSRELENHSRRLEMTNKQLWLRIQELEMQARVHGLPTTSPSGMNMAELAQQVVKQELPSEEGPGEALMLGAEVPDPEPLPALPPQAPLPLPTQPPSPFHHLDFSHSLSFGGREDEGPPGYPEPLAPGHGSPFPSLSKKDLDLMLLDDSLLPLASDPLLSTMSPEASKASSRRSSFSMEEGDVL
UniProt P70335: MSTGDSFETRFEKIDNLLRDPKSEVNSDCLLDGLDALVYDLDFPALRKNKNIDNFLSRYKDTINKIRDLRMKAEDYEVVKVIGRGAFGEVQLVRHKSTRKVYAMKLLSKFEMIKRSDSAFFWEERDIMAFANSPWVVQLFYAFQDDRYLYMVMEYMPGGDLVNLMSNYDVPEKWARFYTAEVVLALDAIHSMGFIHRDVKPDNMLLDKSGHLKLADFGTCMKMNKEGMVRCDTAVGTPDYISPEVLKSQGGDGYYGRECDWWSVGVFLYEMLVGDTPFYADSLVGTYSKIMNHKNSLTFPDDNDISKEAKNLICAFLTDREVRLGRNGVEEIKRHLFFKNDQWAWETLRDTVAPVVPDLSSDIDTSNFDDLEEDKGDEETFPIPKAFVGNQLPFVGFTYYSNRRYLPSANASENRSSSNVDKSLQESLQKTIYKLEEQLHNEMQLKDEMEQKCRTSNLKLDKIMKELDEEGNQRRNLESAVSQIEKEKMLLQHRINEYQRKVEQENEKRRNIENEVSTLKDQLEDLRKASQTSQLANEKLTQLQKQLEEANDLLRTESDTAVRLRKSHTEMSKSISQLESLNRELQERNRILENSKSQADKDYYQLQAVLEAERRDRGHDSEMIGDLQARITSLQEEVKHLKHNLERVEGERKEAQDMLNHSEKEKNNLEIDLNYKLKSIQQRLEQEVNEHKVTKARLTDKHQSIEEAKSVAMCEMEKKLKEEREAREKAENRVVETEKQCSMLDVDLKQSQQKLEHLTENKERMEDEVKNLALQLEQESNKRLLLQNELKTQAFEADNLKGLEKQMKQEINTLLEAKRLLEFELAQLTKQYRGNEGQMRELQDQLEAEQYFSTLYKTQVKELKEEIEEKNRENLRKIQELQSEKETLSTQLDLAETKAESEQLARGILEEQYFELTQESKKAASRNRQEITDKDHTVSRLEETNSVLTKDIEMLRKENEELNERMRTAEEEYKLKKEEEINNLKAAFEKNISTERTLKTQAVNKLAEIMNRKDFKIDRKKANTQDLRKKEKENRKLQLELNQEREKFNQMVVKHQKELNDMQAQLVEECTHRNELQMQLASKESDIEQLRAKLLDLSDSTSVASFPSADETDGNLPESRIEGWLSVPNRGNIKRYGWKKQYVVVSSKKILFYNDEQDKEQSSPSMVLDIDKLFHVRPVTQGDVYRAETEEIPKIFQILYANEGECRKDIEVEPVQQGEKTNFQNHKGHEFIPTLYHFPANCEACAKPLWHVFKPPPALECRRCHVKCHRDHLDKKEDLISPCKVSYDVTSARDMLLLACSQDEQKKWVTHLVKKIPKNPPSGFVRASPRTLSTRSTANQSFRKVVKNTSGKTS
UniProt O75116: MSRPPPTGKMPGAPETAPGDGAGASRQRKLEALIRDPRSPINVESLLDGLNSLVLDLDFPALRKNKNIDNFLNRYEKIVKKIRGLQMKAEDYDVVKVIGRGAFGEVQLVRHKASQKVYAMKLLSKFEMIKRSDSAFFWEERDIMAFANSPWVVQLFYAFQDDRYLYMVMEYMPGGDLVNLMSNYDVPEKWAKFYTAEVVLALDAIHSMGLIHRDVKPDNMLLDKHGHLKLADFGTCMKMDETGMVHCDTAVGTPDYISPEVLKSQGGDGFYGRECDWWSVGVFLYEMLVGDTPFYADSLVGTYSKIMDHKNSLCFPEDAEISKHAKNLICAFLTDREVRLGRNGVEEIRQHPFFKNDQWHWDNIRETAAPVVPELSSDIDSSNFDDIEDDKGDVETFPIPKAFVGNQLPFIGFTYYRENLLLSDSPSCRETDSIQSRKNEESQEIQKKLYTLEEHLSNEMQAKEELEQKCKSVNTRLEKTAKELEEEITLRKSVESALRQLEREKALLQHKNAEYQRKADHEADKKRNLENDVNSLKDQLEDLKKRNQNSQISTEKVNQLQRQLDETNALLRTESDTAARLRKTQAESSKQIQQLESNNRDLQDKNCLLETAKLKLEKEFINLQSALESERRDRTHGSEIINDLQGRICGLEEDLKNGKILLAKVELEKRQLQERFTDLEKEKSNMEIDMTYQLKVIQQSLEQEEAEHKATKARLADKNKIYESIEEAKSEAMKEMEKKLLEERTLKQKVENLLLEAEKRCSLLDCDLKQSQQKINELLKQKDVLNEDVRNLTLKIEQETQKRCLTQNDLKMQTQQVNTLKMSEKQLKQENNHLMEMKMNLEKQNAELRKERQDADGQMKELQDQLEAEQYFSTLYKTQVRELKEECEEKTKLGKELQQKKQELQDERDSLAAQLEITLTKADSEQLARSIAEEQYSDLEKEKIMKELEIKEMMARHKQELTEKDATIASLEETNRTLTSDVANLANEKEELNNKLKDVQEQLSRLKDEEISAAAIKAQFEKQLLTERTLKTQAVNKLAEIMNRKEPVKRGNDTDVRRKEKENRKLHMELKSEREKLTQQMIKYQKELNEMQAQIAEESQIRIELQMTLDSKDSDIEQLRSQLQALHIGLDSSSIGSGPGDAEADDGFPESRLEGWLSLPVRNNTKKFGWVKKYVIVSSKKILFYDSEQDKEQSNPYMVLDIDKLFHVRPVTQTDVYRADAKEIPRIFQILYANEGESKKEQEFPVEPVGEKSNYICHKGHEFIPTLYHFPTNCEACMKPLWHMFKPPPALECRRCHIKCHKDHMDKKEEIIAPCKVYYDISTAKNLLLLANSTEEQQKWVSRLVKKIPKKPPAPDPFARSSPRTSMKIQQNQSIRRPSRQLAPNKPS

Legend:
[1] = target: Rho-associated coiled-coil kinase 1 (human (endogenous in HEK-293T)) (UniProt Q13464); experiment: co-IP; HEK-293T lysate (Pierce IP lysis buffer); anti-ROCK1 antibody overnight at 4 °C, protein A/G agarose; immunoblotting
[2] = target: TFEB (mouse hippocampus) (mouse (endogenous in hippocampus of APP/PS1 mice)) (UniProt Q9R210); experiment: proximity ligation; PLA in the hippocampal CA3 region of APP/PS1 mice microinjected with AAV-sh-Con or AAV-sh-ROCK1
[3] = target: Transcription factor EB (human (endogenous in HEK-293T)) (UniProt P19484); experiment: proximity ligation; Duolink in situ PLA Kit (Red) on HEK-293T cells; also after control siRNA or ROCK1 siRNA

“cation-independent mannose-6-phosphate receptor (from UniProt P11717 41-2491)” was tested, and the binding [1] was “no binding”.
In the case of “ROCK1 (mouse hippocampus) (from UniProt P70335 1-1354) (enzyme)”, the binding [2] is reported as “binds”.
In the case of “ROCK2 (from UniProt O75116 1-1388) (enzyme)”, the binding [3] is reported as “no binding”.
